Laboratory results published in article doi:10.1101/2024.09.19.613927.
No constants are given. Whether binding was seen depends on the method and setting. In cells and extracts the contact can be indirect. Some entries that bind do so weakly or less than the wild type. Values belong to the molecule of their own block, whether it stands above or below them.

Sequences of proteins named here, by UniProt entry; tags and fusion partners are left off.
UniProt P23475: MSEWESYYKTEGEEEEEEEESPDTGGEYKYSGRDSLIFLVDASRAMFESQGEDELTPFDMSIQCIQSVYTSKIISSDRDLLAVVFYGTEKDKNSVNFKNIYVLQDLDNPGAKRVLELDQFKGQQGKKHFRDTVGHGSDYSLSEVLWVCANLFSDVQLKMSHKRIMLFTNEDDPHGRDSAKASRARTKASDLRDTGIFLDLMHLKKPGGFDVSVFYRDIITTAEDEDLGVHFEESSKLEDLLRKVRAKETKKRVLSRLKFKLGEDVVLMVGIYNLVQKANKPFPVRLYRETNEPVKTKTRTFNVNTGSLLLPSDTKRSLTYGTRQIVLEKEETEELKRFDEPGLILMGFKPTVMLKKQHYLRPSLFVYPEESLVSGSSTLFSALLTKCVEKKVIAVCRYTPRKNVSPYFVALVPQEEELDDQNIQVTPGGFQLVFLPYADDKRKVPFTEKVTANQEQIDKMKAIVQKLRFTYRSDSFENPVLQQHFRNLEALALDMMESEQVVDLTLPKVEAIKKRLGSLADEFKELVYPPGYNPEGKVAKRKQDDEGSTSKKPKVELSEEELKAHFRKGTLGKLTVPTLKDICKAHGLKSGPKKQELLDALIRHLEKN
UniProt P42859: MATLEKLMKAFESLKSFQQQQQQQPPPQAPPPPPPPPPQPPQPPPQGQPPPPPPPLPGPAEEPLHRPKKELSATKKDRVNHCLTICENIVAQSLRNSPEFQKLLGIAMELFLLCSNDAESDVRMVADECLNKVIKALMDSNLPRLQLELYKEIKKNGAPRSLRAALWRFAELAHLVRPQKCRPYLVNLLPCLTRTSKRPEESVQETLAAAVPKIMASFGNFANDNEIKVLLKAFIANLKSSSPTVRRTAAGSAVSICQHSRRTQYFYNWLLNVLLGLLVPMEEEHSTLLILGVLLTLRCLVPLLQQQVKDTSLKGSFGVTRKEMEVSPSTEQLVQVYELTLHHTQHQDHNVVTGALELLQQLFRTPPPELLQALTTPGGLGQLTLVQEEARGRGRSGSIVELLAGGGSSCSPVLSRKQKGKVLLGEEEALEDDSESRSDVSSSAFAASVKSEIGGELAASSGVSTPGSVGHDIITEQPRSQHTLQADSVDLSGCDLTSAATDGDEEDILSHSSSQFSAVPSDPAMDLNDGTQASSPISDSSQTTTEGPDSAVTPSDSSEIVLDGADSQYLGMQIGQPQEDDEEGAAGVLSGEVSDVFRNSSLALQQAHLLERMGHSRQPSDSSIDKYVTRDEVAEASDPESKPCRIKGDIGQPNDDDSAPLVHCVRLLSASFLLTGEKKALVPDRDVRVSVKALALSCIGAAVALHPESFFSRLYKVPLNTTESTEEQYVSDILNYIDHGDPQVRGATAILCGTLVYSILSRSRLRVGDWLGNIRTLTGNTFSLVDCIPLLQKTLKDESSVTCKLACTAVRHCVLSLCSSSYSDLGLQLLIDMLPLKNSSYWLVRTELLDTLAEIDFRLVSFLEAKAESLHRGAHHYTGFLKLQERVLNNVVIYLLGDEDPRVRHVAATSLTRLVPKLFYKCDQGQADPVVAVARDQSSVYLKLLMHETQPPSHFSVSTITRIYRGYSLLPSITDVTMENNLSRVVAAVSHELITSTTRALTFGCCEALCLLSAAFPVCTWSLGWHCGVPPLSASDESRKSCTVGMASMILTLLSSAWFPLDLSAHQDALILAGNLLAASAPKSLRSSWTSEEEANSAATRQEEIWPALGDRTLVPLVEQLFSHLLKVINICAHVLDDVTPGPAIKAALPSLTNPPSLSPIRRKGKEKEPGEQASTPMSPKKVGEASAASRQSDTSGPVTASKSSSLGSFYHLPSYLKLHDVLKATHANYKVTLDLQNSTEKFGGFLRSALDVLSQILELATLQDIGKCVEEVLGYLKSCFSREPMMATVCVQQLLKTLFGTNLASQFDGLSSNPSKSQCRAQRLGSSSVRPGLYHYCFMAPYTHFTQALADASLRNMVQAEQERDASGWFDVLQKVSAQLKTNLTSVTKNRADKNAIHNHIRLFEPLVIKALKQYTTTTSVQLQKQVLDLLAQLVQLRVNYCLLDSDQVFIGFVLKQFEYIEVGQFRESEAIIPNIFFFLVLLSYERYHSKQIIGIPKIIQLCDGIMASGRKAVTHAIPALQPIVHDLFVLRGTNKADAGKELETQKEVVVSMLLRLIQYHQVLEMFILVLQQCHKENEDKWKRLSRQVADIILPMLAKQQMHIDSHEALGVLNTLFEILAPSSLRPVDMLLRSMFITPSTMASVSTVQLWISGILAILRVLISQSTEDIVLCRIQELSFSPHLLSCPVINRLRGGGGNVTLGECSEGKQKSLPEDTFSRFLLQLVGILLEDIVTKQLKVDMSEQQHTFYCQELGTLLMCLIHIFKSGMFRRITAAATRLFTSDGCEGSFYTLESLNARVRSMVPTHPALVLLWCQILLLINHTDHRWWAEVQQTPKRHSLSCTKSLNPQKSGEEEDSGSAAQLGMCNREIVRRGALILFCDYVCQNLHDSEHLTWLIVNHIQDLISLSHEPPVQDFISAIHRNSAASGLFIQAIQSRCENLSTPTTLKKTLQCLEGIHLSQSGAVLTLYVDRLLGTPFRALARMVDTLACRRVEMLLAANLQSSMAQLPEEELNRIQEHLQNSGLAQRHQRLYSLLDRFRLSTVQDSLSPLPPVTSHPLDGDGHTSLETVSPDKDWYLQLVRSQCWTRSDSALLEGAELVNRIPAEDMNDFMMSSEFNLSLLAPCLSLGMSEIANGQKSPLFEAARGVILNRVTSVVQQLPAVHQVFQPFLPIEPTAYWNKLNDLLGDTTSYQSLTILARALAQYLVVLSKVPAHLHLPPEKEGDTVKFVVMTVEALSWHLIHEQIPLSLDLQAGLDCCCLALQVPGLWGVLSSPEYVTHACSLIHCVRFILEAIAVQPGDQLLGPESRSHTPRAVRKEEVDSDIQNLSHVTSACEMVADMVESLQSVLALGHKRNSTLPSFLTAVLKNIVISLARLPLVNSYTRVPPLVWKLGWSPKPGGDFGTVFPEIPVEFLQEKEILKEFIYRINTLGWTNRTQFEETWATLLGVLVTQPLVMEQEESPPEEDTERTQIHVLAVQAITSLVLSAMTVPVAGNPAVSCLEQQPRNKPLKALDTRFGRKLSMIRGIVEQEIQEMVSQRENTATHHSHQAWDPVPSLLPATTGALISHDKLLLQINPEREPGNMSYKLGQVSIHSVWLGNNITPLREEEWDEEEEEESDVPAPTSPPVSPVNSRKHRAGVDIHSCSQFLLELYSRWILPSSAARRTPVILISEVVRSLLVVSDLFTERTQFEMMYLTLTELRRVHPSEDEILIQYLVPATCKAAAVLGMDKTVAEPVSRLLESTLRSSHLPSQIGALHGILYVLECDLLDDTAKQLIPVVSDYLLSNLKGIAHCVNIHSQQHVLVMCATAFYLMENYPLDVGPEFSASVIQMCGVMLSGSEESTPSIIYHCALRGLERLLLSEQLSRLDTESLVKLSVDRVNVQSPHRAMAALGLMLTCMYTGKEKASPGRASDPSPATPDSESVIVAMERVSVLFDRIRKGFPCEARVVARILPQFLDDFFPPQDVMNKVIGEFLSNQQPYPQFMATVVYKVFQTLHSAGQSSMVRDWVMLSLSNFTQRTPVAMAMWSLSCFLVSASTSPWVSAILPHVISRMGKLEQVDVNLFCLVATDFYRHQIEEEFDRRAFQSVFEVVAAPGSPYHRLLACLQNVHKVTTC
UniProt Q924T3: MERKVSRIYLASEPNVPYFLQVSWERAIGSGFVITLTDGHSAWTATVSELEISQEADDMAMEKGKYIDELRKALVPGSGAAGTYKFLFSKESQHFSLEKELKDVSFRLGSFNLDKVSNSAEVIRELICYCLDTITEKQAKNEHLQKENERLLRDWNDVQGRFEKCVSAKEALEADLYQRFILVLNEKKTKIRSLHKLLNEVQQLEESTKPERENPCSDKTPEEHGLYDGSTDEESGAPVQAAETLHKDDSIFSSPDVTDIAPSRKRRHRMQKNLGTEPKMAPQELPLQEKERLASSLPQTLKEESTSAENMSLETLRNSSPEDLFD
UniProt Q3TKT4: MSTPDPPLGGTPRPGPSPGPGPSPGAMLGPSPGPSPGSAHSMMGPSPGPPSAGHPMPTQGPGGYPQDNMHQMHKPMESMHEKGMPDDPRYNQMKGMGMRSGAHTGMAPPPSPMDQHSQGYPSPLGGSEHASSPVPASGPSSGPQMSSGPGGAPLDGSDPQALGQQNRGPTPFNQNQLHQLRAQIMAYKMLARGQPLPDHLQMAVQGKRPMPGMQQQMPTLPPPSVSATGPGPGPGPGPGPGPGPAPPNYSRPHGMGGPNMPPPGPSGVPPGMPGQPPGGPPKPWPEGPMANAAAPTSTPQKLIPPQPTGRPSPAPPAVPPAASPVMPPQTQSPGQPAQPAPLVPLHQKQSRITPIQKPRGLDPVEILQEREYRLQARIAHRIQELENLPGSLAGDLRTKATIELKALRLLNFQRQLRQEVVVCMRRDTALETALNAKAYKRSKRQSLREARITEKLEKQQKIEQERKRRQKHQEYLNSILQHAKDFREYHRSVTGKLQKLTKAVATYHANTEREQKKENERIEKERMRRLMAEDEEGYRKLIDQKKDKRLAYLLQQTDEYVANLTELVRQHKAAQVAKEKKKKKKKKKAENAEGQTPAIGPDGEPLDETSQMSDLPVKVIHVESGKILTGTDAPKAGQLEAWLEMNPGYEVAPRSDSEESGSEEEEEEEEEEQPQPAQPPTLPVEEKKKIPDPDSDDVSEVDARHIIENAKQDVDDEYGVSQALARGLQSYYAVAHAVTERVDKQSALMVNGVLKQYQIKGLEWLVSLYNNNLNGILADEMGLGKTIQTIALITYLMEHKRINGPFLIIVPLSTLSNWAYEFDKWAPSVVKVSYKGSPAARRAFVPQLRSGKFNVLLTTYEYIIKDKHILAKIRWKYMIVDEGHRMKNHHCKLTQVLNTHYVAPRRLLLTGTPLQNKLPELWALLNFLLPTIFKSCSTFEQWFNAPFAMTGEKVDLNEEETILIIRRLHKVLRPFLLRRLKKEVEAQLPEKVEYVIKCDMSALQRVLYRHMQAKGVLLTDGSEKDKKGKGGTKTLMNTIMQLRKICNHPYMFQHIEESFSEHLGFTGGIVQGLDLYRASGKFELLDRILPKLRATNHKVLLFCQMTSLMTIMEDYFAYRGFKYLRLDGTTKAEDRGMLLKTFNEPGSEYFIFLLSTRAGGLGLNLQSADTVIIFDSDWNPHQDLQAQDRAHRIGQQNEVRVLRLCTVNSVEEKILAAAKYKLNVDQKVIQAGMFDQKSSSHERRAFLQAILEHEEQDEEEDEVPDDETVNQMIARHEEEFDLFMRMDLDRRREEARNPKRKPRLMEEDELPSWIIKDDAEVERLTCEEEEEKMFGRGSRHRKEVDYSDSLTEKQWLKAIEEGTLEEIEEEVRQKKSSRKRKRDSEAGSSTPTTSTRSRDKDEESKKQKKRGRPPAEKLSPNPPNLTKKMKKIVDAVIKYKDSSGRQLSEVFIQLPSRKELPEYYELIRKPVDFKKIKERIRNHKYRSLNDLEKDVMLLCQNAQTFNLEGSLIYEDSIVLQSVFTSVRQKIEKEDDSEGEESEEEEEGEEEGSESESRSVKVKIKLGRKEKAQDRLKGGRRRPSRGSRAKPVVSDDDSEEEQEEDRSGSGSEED
UniProt P12956: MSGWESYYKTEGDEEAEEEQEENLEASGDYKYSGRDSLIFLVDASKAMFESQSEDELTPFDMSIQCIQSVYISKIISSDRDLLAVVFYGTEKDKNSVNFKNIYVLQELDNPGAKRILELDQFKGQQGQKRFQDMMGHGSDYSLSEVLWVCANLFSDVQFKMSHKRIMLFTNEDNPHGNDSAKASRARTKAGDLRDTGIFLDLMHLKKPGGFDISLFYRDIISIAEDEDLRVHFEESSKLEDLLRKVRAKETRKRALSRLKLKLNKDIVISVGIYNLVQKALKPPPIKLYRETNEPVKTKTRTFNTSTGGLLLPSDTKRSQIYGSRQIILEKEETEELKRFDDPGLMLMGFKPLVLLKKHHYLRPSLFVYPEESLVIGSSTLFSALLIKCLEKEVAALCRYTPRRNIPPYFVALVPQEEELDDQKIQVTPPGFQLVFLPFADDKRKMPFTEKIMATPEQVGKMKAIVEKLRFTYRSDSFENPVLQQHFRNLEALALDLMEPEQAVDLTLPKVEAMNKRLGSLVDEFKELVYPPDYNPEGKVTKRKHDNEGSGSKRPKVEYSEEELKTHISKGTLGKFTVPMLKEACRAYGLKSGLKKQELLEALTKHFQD
UniProt P28352: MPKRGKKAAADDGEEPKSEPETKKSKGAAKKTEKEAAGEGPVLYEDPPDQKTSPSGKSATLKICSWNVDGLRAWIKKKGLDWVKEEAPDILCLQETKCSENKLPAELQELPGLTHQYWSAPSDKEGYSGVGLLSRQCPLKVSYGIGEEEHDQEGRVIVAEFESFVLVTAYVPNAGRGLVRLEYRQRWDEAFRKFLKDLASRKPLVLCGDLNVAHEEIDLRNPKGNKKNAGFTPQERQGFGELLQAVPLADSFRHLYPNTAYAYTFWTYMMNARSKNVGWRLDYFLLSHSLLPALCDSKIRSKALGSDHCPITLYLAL

Key:
[1] = molecular target: Ku70, mouse (mouse (endogenous in mouse brain)) (UniProt P23475); assay: co-IP
[2] = molecular target: DNA-PKcs, mouse (mouse (endogenous in mouse brain)) (UniProt P97313); assay: co-IP
[3] = molecular target: huntingtin (HTT), mouse (mouse (endogenous in C57BL/6 brain)) (UniProt P42859); assay: co-IP
[4] = molecular target: XRCC4, mouse (mouse (endogenous in mouse brain)) (UniProt Q924T3); assay: co-IP
[5] = molecular target: huntingtin (HTT) (human (endogenous in SH-SY5Y)) (UniProt P42858); assay: proximity ligation
[6] = molecular target: Brahma-Related Gene 1 (BRG1) (human (endogenous in SH-SY5Y)) (UniProt P51532); assay: proximity ligation
[7] = molecular target: FLAG-tagged BRG1 (FLAG-BRG1) (human) (UniProt P51532); assay: co-IP
[8] = molecular target: BRG1, mouse (mouse (endogenous in mouse brain)) (UniProt Q3TKT4); assay: co-IP

Molecule: Cockayne Syndrome protein B (CSB), mouse (from UniProt F8VPZ5 1-1481)
binding [3]: binds

Molecule: DNA-PKcs, mouse (from UniProt P97313 1-4128) (enzyme)
binding [3]: binds

Molecule: DNA-dependent protein kinase catalytic subunit (DNA-PKcs) (from UniProt P78527 1-4128) (enzyme)
binding [6]: binds | binding [7]: binds

Molecule: Ku70 (XRCC6) (from UniProt P12956 1-609)
binding [5]: binds

Molecule: Ku80 (XRCC5) (from UniProt P13010 1-732)
binding [5]: binds

Molecule: PNKP (polynucleotide kinase 3'-phosphatase) (from UniProt Q96T60 1-521) (enzyme)
binding [5]: binds | binding [7]: no binding

Molecule: XRCC4 (from UniProt Q13426 1-336)
binding [5]: binds

Molecule: huntingtin (HTT), mouse (from UniProt P42859 1-3119)
binding [1]: binds | binding [2]: binds | binding [8]: binds | binding [4]: binds

B1: DNA LIG IV, mouse (enzyme, UniProt Q8BTF7 1-911)
chain: MASSQTSQTVAAHVPFADLCSTLERIQKGKDRAEKIRHFKEFLDSWRKFHDALHKNRKDVTDSFYPAMRLILPQLERERMAYGIKETMLAKLYIELLNLPREGKDAQKLLNYRTPSGARTDAGDFAMIAYFVLKPRCLQKGSLTIQQVNELLDLVASNNSGKKKDLVKKSLLQLITQSSALEQKWLIRMIIKDLKLGISQQTIFSIFHNDAVELHNVTTDLEKVCRQLHDPSVGLSDISITLFSAFKPMLAAVADVERVEKDMKQQSFYIETKLDGERMQMHKDGALYRYFSRNGYNYTDQFGESPQEGSLTPFIHNAFGTDVQACILDGEMMAYNPTTQTFMQKGVKFDIKRMVEDSGLQTCYSVFDVLMVNKKKLGRETLRKRYEILSSTFTPIQGRIEIVQKTQAHTKKEVVDALNDAIDKREEGIMVKHPLSIYKPDKRGEGWLKIKPEYVSGLMDELDVLIVGGYWGKGSRGGMMSHFLCAVAETPPPGDRPSVFHTLCRVGSGYTMKELYDLGLKLAKYWKPFHKKSPPSSILCGTEKPEVYIEPQNSVIVQIKAAEIVPSDMYKTGSTLRFPRIEKIRDDKEWHECMTLGDLEQLRGKASGKLATKHLHVGDDDEPREKRRKPISKTKKAIRIIEHLKAPNLSNVNKVSNVFEDVEFCVMSGLDGYPKADLENRIAEFGGYIVQNPGPDTYCVIAGSENVRVKNIISSDKNDVVKPEWLLECFKTKTCVPWQPRFMIHMCPSTKQHFAREYDCYGDSYFVDTDLDQLKEVFLGIKPSEQQTPEEMAPVIADLECRYSWDHSPLSMFRHYTIYLDLYAVINDLSSRIEATRLGITALELRFHGAKVVSCLSEGVSHVIIGEDQRRVTDFKIFRRMLKKKFKILQESWVSDSVDKGELQEENQYLL
binding [3]: binds

Further lines, results first:

binding [1]: binds | binding [2]: binds | binding [3]: binds | binding [4]: binds
Molecule: BRG1, mouse (from UniProt Q3TKT4 1-1613)

binding [5]: binds
Molecule: Cockayne Syndrome protein B (CSB) (from UniProt Q03468 1-1493)

binding [3]: binds
Molecule: Ku70, mouse (from UniProt P23475 1-608)

binding [6]: binds | binding [5]: binds
Molecule: PARP1 (from UniProt P09874 1-1014) (enzyme)

binding [3]: binds
Molecule: PNKP, mouse (from UniProt Q9JLV6 1-522) (enzyme)

binding [3]: binds
Molecule: XRCC4, mouse (from UniProt Q924T3 1-326)

binding [1]: no binding | binding [2]: no binding | binding [4]: no binding
Molecule: apurinic-apyrimidinic endonuclease 1 (APE1), mouse (from UniProt P28352 1-317) (enzyme)
